Earlier results, collected in US6458347B1, “Drug complex” (Asahi Kasei Kabushiki Kaisha, priority 1996, dated 2002).

Conditions: reported, Nature, 365, 464-466 (1993); cited from earlier work

CC(=O)O[C@H]1C(=O)[C@@]2(C)[C@H]([C@H](OC(=O)c3ccccc3)[C@]3(O)C[C@H](OC(=O)[C@H](O)[C@@H](NC(=O)c4ccccc4)c4ccccc4)C(C)=C1C3(C)C)[C@]1(OC(C)=O)CO[C@@H]1C[C@@H]2O [paclitaxel]
water-solubility: less than 0.004 mg/ml
